Values from PubChem BioAssay AID1224829 (NIAID, 2016)

- Aim: 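Genes needed for LPS-driven NF-kappaB p65 nuclear entry in mouse macrophages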 (follow-up of hits)
- Cell system: mouse RAW264.7 G9 macrophage reporter cells
- Reagents: single siRNA against mouse genes, 100 nM
- Duration: 2 days of siRNA knock-down, then 40 min of LPS before fixing
- Treatment: LPS (Salmonella minnesota R595) at 10 ng/ml
- Measurement: 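Imaging of GFP-p65 after 40 min of LPS; nuclear over perinuclear ring intensity ratio, scaled to plate median and non-targeting control wells, given as z-score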
- Direction: p65 translocation z-score: higher = more nuclear NF-kappaB p65 after LPS
- Active means: 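An siRNA is called active when the mean z-score of its two replicates is above 2 or below -2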
- Calls: active = changed p65 translocation (either direction); inactive = no clear change
Shown is a random part of about 3,800 deposited reagents. 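Calls cover raised and lowered translocation; gene median uses one vendor's three siRNAs; qiagen siRNAs acted more weakly than ambion siRNAs.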 A number with no mark means an inactive call. Reagents against one gene are numbered here. Not all columns of the deposit are shown.

G6pd2 (glucose-6-phosphate dehydrogenase 2) #1, siRNA vendor or control pool ambion single siRNA: p65 translocation z-score, replicate mean = -3.74 (active); p65 translocation z-score, replicate 1 = -2.72
G6pd2 (glucose-6-phosphate dehydrogenase 2) #2, siRNA vendor or control pool ambion single siRNA: p65 translocation z-score, replicate mean = -1.3; p65 translocation z-score, replicate 1 = -1.36
G6pd2 (glucose-6-phosphate dehydrogenase 2) #3, siRNA vendor or control pool ambion single siRNA: p65 translocation z-score, replicate mean = -6.72 (active); p65 translocation z-score, replicate 1 = -6.98
G6pd2 (glucose-6-phosphate dehydrogenase 2) #4, siRNA vendor or control pool qiagen single siRNA: p65 translocation z-score, replicate mean = 2.07 (active); p65 translocation z-score, replicate 1 = 1.26
G6pd2 (glucose-6-phosphate dehydrogenase 2) #5, siRNA vendor or control pool qiagen single siRNA: p65 translocation z-score, replicate mean = 2.55 (active); p65 translocation z-score, replicate 1 = 1.9
G6pd2 (glucose-6-phosphate dehydrogenase 2) #6, siRNA vendor or control pool qiagen single siRNA: p65 translocation z-score, replicate mean = 0.774; p65 translocation z-score, replicate 1 = 0.774
Zfp57 (zinc finger protein 57) #1, siRNA vendor or control pool ambion single siRNA: p65 translocation z-score, replicate mean = 0.0903; p65 translocation z-score, replicate 1 = 0.331
Zfp57 (zinc finger protein 57) #2, siRNA vendor or control pool ambion single siRNA: p65 translocation z-score, replicate mean = 1.67; p65 translocation z-score, replicate 1 = 4.01
Zfp57 (zinc finger protein 57) #3, siRNA vendor or control pool ambion single siRNA: p65 translocation z-score, replicate mean = -3.56 (active); p65 translocation z-score, replicate 1 = -3.53
Zfp57 (zinc finger protein 57) #4, siRNA vendor or control pool qiagen single siRNA: p65 translocation z-score, replicate mean = 1.79; p65 translocation z-score, replicate 1 = 1.91
Zfp57 (zinc finger protein 57) #5, siRNA vendor or control pool qiagen single siRNA: p65 translocation z-score, replicate mean = 0.773; p65 translocation z-score, replicate 1 = -1.4
Zfp57 (zinc finger protein 57) #6, siRNA vendor or control pool qiagen single siRNA: p65 translocation z-score, replicate mean = -3.32 (active); p65 translocation z-score, replicate 1 = -4.34
Actg1 (actin, gamma, cytoplasmic 1) #1, siRNA vendor or control pool ambion single siRNA: p65 translocation z-score, replicate mean = -1.58; p65 translocation z-score, replicate 1 = -1.05
Actg1 (actin, gamma, cytoplasmic 1) #2, siRNA vendor or control pool ambion single siRNA: p65 translocation z-score, replicate mean = -3.46 (active); p65 translocation z-score, replicate 1 = -3.2
Actg1 (actin, gamma, cytoplasmic 1) #3, siRNA vendor or control pool ambion single siRNA: p65 translocation z-score, replicate mean = -4.86 (active); p65 translocation z-score, replicate 1 = -5.65
Actg1 (actin, gamma, cytoplasmic 1) #4, siRNA vendor or control pool qiagen single siRNA: p65 translocation z-score, replicate mean = 0.475; p65 translocation z-score, replicate 1 = -0.061
Actg1 (actin, gamma, cytoplasmic 1) #5, siRNA vendor or control pool qiagen single siRNA: p65 translocation z-score, replicate mean = -2.22 (active); p65 translocation z-score, replicate 1 = -1.54
Actg1 (actin, gamma, cytoplasmic 1) #6, siRNA vendor or control pool qiagen single siRNA: p65 translocation z-score, replicate mean = -3.86 (active); p65 translocation z-score, replicate 1 = -3.03

A stretch from the list above, for reference:
G6pd2 (glucose-6-phosphate dehydrogenase 2) #5, siRNA vendor or control pool qiagen single siRNA: p65 translocation z-score, replicate mean = 2.55 (active); p65 translocation z-score, replicate 1 = 1.9
G6pd2 (glucose-6-phosphate dehydrogenase 2) #6, siRNA vendor or control pool qiagen single siRNA: p65 translocation z-score, replicate mean = 0.774; p65 translocation z-score, replicate 1 = 0.774
Zfp57 (zinc finger protein 57) #1, siRNA vendor or control pool ambion single siRNA: p65 translocation z-score, replicate mean = 0.0903; p65 translocation z-score, replicate 1 = 0.331
Zfp57 (zinc finger protein 57) #2, siRNA vendor or control pool ambion single siRNA: p65 translocation z-score, replicate mean = 1.67; p65 translocation z-score, replicate 1 = 4.01

Continued:
Pon2 (paraoxonase 2) #1, siRNA vendor or control pool ambion single siRNA: p65 translocation z-score, replicate mean = 0.496; p65 translocation z-score, replicate 1 = 0.48
Pon2 (paraoxonase 2) #2, siRNA vendor or control pool ambion single siRNA: p65 translocation z-score, replicate mean = -3.51 (active); p65 translocation z-score, replicate 1 = -3.6
Pon2 (paraoxonase 2) #3, siRNA vendor or control pool ambion single siRNA: p65 translocation z-score, replicate mean = -3.2 (active); p65 translocation z-score, replicate 1 = -1.57
Pon2 (paraoxonase 2) #4, siRNA vendor or control pool qiagen single siRNA: p65 translocation z-score, replicate mean = -1.68; p65 translocation z-score, replicate 1 = -0.378
Pon2 (paraoxonase 2) #5, siRNA vendor or control pool qiagen single siRNA: p65 translocation z-score, replicate mean = -0.499; p65 translocation z-score, replicate 1 = -0.798
Pon2 (paraoxonase 2) #6, siRNA vendor or control pool qiagen single siRNA: p65 translocation z-score, replicate mean = -4.36 (active); p65 translocation z-score, replicate 1 = -3.33
Zp3r (zona pellucida 3 receptor) #1, siRNA vendor or control pool ambion single siRNA: p65 translocation z-score, replicate mean = 1.06; p65 translocation z-score, replicate 1 = 1.39
Zp3r (zona pellucida 3 receptor) #2, siRNA vendor or control pool ambion single siRNA: p65 translocation z-score, replicate mean = -0.209; p65 translocation z-score, replicate 1 = -0.223
Zp3r (zona pellucida 3 receptor) #3, siRNA vendor or control pool ambion single siRNA: p65 translocation z-score, replicate mean = -3.7 (active); p65 translocation z-score, replicate 1 = -1.83
Zp3r (zona pellucida 3 receptor) #4, siRNA vendor or control pool qiagen single siRNA: p65 translocation z-score, replicate mean = 3.2 (active); p65 translocation z-score, replicate 1 = 1.9
Zp3r (zona pellucida 3 receptor) #5, siRNA vendor or control pool qiagen single siRNA: p65 translocation z-score, replicate mean = 0.865; p65 translocation z-score, replicate 1 = 0.903
Zp3r (zona pellucida 3 receptor) #6, siRNA vendor or control pool qiagen single siRNA: p65 translocation z-score, replicate mean = 1.05; p65 translocation z-score, replicate 1 = 0.884
